Measurements reported in PubChem BioAssay AID602196 (INSERM, 2012).
Screen: 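Modifiers of cisplatin sensitivity in A549 cells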. System: human A549 lung cancer cells. Reagents: siRNA pair against human genes. Timing: 48 h transfection before cisplatin; time from cisplatin to read-out not stated. Challenge: cisplatin at a dose killing half of control-siRNA cells; exact dose and duration not given. Detection: 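Shift in cisplatin death relative to control siRNA, from -50 (all cells die) to +50 (no cells die); siRNAs harmful on their own scored 0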. Scale: two-siRNA summed score (-2 to +2): higher = both siRNAs protect from cisplatin killing; -2 means both sensitise; mean protection from cisplatin (shift in death): higher = protection from cisplatin killing. Active means: 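Each siRNA scores 0 if harmful alone by LDH or WST-1, otherwise +1 if it reduces and -1 if it increases cisplatin killing; a gene is active when both siRNAs agree (sum +2 or -2)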. Meaning of the calls: active = both siRNAs shift cisplatin killing the same way; inactive = no consistent shift, or siRNA harmful alone.
The deposit covers about 23,000 reagents; below is a part drawn at random. 455 of all reagents (2%) were called active. 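Active includes both protection and sensitisation; some change values fall well beyond the stated -50 to +50 range.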 Not all columns of the deposit are shown. Reagent sequences are not shown. Not stated in the record: the amount of reagent.

BAZ1B (GeneID 9031) gave two-siRNA summed score (-2 to +2) = 0; mean protection from cisplatin (shift in death) (%) = -2.1; inactive.
Against ARIH2 (GeneID 10425), the entry reads two-siRNA summed score (-2 to +2) = -1; mean protection from cisplatin (shift in death) (%) = -35.4; inactive.
LAMB4 (GeneID 22798) gave two-siRNA summed score (-2 to +2) = 2; mean protection from cisplatin (shift in death) (%) = 20.3; active.
Against DEFA1 (GeneID 1667) the deposit lists two-siRNA summed score (-2 to +2) = 1; mean protection from cisplatin (shift in death) (%) = 6.5; inactive.
FAM53B (GeneID 9679) showed two-siRNA summed score (-2 to +2) = -1; mean protection from cisplatin (shift in death) (%) = -7.8; inactive.
LOC143244 scored two-siRNA summed score (-2 to +2) = 0; mean protection from cisplatin (shift in death) (%) = 5; inactive.
After knock-down of MYH11 (GeneID 4629), the screen gave two-siRNA summed score (-2 to +2) = 0; mean protection from cisplatin (shift in death) (%) = 12.3; inactive.
Silencing of OR10J1 (GeneID 26476) came out at: two-siRNA summed score (-2 to +2) = 0; mean protection from cisplatin (shift in death) (%) = -1; inactive.
With knock-down of DYNLL2 (GeneID 140735), the record shows two-siRNA summed score (-2 to +2) = 0; mean protection from cisplatin (shift in death) (%) = 3.1; inactive.
For USP3 (GeneID 9960), the values are two-siRNA summed score (-2 to +2) = 0; mean protection from cisplatin (shift in death) (%) = 8.5; inactive.
Silencing of NUCB1 (GeneID 4924) gave: two-siRNA summed score (-2 to +2) = -1; mean protection from cisplatin (shift in death) (%) = -9.9; inactive.
Depletion of SLC16A12 (GeneID 387700) resulted in: two-siRNA summed score (-2 to +2) = 0; mean protection from cisplatin (shift in death) (%) = 5.5; inactive.
For RPL26L1 (GeneID 51121) the deposit lists two-siRNA summed score (-2 to +2) = 0; mean protection from cisplatin (shift in death) (%) = 8.2; inactive.
After knock-down of PACRGL (GeneID 133015), the screen gave two-siRNA summed score (-2 to +2) = 0; mean protection from cisplatin (shift in death) (%) = 3.3; inactive.
For DLG5 (GeneID 9231), the entry reads two-siRNA summed score (-2 to +2) = 0; mean protection from cisplatin (shift in death) (%) = 2.9; inactive.
Silencing of MSX1 (GeneID 4487) resulted in: two-siRNA summed score (-2 to +2) = 0; mean protection from cisplatin (shift in death) (%) = -12.5; inactive.
Against AKT1 (GeneID 207) the deposit lists two-siRNA summed score (-2 to +2) = 0; mean protection from cisplatin (shift in death) (%) = -15.7; inactive.
RPL21 (GeneID 6144) gave two-siRNA summed score (-2 to +2) = 0; mean protection from cisplatin (shift in death) (%) = 31.9; inactive.
With knock-down of LILRB3 (GeneID 11025), the record shows two-siRNA summed score (-2 to +2) = -1; mean protection from cisplatin (shift in death) (%) = -24; inactive.
Against LOC388565, the values are two-siRNA summed score (-2 to +2) = 0; mean protection from cisplatin (shift in death) (%) = 9.9; inactive.
Depletion of BGLAP (GeneID 632) came out at: two-siRNA summed score (-2 to +2) = 0; mean protection from cisplatin (shift in death) (%) = 1.7; inactive.

2 successive records from above, quoted:
RPL21 (GeneID 6144) | two-siRNA summed score (-2 to +2): 0; mean protection from cisplatin (shift in death) (%): 31.9; outcome: inactive
LILRB3 (GeneID 11025) | two-siRNA summed score (-2 to +2): -1; mean protection from cisplatin (shift in death) (%): -24; outcome: inactive
